Data on 2 molecules can be found in patent publication US12351586B2 (priority 2020, dated 2025).

Sequences of proteins named here, by UniProt entry; tags and fusion partners are left off. A change or cut given only in a name is not applied to a line headed by its entry.
UniProt Q12809: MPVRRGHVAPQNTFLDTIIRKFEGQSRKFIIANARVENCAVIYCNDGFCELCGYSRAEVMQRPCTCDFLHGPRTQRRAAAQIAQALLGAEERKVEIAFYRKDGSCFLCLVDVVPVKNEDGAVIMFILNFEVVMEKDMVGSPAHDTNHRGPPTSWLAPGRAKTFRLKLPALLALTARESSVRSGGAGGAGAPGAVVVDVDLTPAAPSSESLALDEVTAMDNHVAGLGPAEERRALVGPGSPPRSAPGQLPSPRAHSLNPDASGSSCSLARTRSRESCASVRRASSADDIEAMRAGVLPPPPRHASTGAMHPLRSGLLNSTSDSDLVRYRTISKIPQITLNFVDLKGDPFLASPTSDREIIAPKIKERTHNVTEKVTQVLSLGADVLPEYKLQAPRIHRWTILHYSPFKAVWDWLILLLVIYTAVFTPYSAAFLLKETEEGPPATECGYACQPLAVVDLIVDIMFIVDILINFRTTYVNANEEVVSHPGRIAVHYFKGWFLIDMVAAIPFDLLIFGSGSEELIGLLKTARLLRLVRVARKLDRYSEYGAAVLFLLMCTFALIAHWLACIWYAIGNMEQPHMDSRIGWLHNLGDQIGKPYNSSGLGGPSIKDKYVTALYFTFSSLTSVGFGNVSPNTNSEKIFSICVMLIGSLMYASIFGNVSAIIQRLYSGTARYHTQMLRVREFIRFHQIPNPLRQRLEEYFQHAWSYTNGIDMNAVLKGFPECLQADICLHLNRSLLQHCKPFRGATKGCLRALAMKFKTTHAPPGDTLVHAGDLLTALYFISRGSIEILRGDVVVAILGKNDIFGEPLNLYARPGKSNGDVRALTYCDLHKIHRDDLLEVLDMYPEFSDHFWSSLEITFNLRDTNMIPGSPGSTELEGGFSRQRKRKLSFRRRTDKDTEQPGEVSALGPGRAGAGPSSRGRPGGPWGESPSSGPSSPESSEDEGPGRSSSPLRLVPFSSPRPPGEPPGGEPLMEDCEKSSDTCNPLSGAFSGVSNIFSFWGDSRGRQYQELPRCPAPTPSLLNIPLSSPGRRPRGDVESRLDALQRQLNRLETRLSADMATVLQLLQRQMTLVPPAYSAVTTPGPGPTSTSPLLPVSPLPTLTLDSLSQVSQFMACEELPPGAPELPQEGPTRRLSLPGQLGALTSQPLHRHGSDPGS

Read-outs that look alike come from different tables or passages of the source.

Series [1] concerns the target T1, hERG potassium channel (Homo sapiens, UniProt Q12809). The following applies: cited from earlier work.
The conditions of series [2]: rat.
The target of series [3] is T1, hERG potassium channel. Briefly: cell-based.

Consider `Cc1cc(/C=C/C#N)cc(C)c1Oc1nc(NC2CCN(Cc3ccc(S(N)(=O)=O)cc3)CC2)nc2ccsc12` [25a], for which, on hERG potassium channel [1], the IC50 (commonly the concentration that inhibits the measured activity by half) was 186 nM.

For the molecule `Cc1cc(/C=C/C#N)cc(C)c1Oc1nc(NC2CCN(Cc3ccc(S(N)(=O)=O)cc3)CC2)nc2sccc12` [DK6-1], in series [2] (iv 2 mg/kg), the CL is 38.3 ± 6.7 mL/min/kg; the Cmax – broadly, the highest concentration seen after dosing – is given as 1713 ± 399 ng/mL; the T1/2 was 2.0 ± 0.4 h. In series [2] (po 20 mg/kg), this molecule yielded a Cmax of 614 ± 249 ng/mL and a T1/2 of 2.8 ± 0.3 h. Also, at hERG potassium channel [3], the IC50 worked out at 980 nM.
